Results are given in words; binding and its absence hold for the method and conditions named. Some binding calls cover weakened binding; strength is not graded here. Where a sequence is shown, tags or fusion partners need not be part of it.
Legend:
[1] = target: T1, CFM2 (yeast two-hybrid fusion, transit peptide removed) (Arabidopsis thaliana) (UniProt Q8L7C2); assay: two-hybrid
T1 sequence: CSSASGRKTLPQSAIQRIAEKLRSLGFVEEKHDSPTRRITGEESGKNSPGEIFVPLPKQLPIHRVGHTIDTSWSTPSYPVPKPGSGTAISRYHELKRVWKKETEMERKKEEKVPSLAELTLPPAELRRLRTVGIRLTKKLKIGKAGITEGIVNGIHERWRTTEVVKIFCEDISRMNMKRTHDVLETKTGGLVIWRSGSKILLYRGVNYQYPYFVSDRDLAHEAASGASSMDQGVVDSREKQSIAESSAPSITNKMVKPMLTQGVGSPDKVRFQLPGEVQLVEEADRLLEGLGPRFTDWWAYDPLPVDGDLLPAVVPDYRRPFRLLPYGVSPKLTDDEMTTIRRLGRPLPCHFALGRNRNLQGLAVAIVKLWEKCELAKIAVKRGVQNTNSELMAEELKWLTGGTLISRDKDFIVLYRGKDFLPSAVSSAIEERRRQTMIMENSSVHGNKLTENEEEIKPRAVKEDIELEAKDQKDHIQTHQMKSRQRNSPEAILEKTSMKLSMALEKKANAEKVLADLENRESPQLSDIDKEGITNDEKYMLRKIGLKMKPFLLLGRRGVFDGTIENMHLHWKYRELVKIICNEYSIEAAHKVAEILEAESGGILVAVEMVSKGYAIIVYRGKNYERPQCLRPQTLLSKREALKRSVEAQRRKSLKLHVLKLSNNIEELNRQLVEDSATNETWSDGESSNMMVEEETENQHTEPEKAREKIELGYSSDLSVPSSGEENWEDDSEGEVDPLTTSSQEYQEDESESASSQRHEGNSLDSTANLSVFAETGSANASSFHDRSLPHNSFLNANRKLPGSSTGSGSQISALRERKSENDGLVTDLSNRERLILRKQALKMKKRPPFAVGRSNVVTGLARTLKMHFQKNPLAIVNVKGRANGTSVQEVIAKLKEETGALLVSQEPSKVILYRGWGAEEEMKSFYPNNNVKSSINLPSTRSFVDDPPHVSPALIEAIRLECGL

[2] = target: T2, EMB1270 (yeast two-hybrid fusion, transit peptide removed) (Arabidopsis thaliana) (UniProt Q5G1S8); assay: two-hybrid
T2 sequence: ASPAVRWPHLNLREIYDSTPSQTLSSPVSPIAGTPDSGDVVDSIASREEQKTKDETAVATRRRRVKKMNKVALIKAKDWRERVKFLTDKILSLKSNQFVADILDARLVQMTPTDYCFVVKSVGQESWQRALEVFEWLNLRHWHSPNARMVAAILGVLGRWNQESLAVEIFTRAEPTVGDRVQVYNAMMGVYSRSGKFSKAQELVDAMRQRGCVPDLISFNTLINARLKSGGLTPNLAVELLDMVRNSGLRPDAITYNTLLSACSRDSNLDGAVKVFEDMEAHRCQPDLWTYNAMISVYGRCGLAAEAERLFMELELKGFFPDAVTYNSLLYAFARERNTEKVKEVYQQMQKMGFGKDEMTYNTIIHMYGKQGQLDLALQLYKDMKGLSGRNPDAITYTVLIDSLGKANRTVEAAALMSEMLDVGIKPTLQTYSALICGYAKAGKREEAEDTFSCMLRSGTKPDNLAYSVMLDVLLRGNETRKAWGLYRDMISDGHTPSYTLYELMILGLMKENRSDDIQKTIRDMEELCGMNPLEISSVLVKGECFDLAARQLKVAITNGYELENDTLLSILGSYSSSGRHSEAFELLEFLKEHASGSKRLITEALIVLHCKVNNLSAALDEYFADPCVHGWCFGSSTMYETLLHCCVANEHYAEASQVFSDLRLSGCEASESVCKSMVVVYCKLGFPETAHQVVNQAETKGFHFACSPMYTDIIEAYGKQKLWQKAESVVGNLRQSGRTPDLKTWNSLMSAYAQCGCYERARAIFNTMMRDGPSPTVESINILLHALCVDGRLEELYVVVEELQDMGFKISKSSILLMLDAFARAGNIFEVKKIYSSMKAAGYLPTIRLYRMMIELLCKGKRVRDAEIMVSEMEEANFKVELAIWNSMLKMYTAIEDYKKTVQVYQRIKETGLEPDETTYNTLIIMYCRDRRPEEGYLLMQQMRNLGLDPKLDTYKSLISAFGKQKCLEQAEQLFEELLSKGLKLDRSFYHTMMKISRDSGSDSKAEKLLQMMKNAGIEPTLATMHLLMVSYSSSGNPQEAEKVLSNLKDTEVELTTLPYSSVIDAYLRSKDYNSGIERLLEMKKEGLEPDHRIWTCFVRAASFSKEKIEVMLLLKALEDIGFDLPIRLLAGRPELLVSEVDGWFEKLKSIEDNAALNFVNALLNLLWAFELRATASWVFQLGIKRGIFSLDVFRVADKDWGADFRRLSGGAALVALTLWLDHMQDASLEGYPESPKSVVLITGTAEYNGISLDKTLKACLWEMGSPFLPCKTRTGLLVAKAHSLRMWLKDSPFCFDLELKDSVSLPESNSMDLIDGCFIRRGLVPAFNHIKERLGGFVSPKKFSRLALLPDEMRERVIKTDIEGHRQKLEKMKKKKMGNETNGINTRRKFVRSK

B1: EMB1006 (yeast two-hybrid fusion, transit peptide removed) (protein, UniProt Q9FGR7 45-723)
chain: ATSPSSSSSSPSIFLSCFDDALPDKIQQPENSTINSEESECEEEDDEEGDDFTDPILKFFKSRTLTSESTADPARESKFSLQKNRRTSWHLAPDFADPETEIESKPEESVFVTNQQTLGVHIPFESGVAREILELAKNLKENQTLGEMLSGFERRVSDTECVEALVMMGESGFVKSCLYFYEWMSLQEPSLASPRACSVLFTLLGRERMADYILLLLSNLPDKEEFRDVRLYNAAISGLSASQRYDDAWEVYEAMDKINVYPDNVTCAILITTLRKAGRSAKEVWEIFEKMSEKGVKWSQDVFGGLVKSFCDEGLKEEALVIQTEMEKKGIRSNTIVYNTLMDAYNKSNHIEEVEGLFTEMRDKGLKPSAATYNILMDAYARRMQPDIVETLLREMEDLGLEPNVKSYTCLISAYGRTKKMSDMAADAFLRMKKVGLKPSSHSYTALIHAYSVSGWHEKAYASFEEMCKEGIKPSVETYTSVLDAFRRSGDTGKLMEIWKLMLREKIKGTRITYNTLLDGFAKQGLYIEARDVVSEFSKMGLQPSVMTYNMLMNAYARGGQDAKLPQLLKEMAALNLKPDSITYSTMIYAFVRVRDFKRAFFYHKMMVKSGQVPDPRSYEKLRAILEDKAKTKNRKDKTAILGIINSKFGRVKAKTKGKKDEFWKYKTNRTTSPGRHRS
B1 was tested, and the binding [1] was “binds” and the binding [2] was “binds”.
